Experimental data: publication PMC4339375
Results are given in words; binding and its absence hold for the method and conditions named. For part of these data: In cells and extracts the contact can be indirect. For part of these data: Binding calls can cover weak binding; strength is not graded here. Sequences can lack the tags named with a protein. Values belong to the molecule of their own block, whether it stands above or below them.

Tests used:
[1] = molecular target: T1, PTST-TAP, Arabidopsis PTST with a C-terminal TAP tag containing c-Myc epitopes (Arabidopsis thaliana) (UniProt Q94AX2); experiment: co-IP; PTST-TAP (bait) and GBSS-CFP-HA (prey) transiently co-expressed in tobacco leaves; immunoprecipitated from extracted soluble proteins with anti-c-Myc beads; blots with anti-Myc and anti-HA
T1 sequence: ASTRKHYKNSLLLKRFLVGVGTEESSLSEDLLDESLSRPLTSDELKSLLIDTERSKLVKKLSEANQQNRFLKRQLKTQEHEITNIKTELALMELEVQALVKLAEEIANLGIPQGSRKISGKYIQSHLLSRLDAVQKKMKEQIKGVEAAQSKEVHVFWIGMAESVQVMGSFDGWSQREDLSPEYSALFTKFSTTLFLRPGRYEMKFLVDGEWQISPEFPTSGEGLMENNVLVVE

[2] = molecular target: GBSS-His6 E452K variant (Arabidopsis thaliana); experiment: pull-down; GBSS-His6 recovered on Ni2+-NTA resin; 1 ug of each purified recombinant protein, 60 min at 20°C, 50 mM Tris-HCl pH 7.5, 300 mM NaCl, 10 mM imidazole, 0.1% BSA; eluted with 250 mM imidazole; immunoblot with anti-His and anti-GST; both purified
[3] = molecular target: GBSS-His6 K441E/E452K variant (Arabidopsis thaliana); experiment: as above

binding [1]: binds weakly
Molecule: GBSS-CFP-HA with the charge-shift mutation at Glu452 (Arabidopsis thaliana) (enzyme)

binding [2]: no binding (tested: 1 μg each)
binding [3]: no binding (tested: 1 μg each)
B1: GST-PTST, Arabidopsis PROTEIN … TO STARCH lacking the chloroplast transit peptide (protein, UniProt Q94AX2 45-277)
chain: T1 sequence
